# Reference: PubChem BioAssay AID743121 (NCATS, 2013)
# Aim: 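Partners whose loss is lethal together with topoisomerase I blockade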 (primary screen)
# Cell system: MDA-MB-231 cells, a human breast cancer line
# Knock-down reagent: single siRNA against human genes, 20 nM siRNA (0.8 pmol per well)
# Duration: 120 h (drug added 48 h after transfection, read 72 h later)
# Conditions: camptothecin 20 nM (about EC30) for 72 h; vehicle 0.1% DMSO in parallel plates
# Measured: 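CellTiter-Glo ATP signal, scaled to control siRNA as percent viability; sensitisation given as log2 of untreated divided by camptothecin-treated viability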
# Direction: log2 vehicle/camptothecin viability: higher = stronger sensitisation to camptothecin; viability with camptothecin: higher = more viable cells
# Hit rule: 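Each gene scored by redundant siRNA activity (RSA) over its individual siRNA ratios; a gene is called active at p < 0.001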
# Here is one part, drawn at random, of about 26,000 deposited reagents. Over the whole deposit, 167 (0.63%) got an active call. 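Calls are per gene from RSA p-values that are not deposited; an individual active-marked siRNA can sensitise only weakly.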 The numbers tell different reagents against one gene apart. Not all columns of the deposit are shown.
gene,siRNA no.,log2 vehicle/camptothecin viability,viability with camptothecin (% of control),Outcome
CSF3 (colony stimulating factor 3),1,-0.104,79.4,inactive
CSF3 (colony stimulating factor 3),2,-0.128,85.7,inactive
CSF3 (colony stimulating factor 3),3,-0.142,66.6,inactive
CSF3 (colony stimulating factor 3),4,-0.226,80.7,inactive
SRPX2 (sushi repeat containing protein X-linked 2),1,-0.0376,103,inactive
SRPX2 (sushi repeat containing protein X-linked 2),2,0.243,86.3,inactive
SRPX2 (sushi repeat containing protein X-linked 2),3,-0.0112,101,inactive
FFAR4 (free fatty acid receptor 4),1,-0.087,105,inactive
FFAR4 (free fatty acid receptor 4),2,-0.156,103,inactive
FFAR4 (free fatty acid receptor 4),3,0.00775,75.6,inactive
FFAR4 (free fatty acid receptor 4),4,-0.212,109,inactive
HTR1D (5-hydroxytryptamine receptor 1D),1,-0.166,86.4,inactive
HTR1D (5-hydroxytryptamine receptor 1D),2,0.275,57.8,inactive
HTR1D (5-hydroxytryptamine receptor 1D),3,-0.399,114,inactive
HTR1D (5-hydroxytryptamine receptor 1D),4,0.389,51.8,inactive
CELSR3 (cadherin EGF LAG seven-pass G-type receptor 3),1,0.369,37.4,inactive
CELSR3 (cadherin EGF LAG seven-pass G-type receptor 3),2,0.053,97.7,inactive
CELSR3 (cadherin EGF LAG seven-pass G-type receptor 3),3,-0.388,121,inactive
CELSR3 (cadherin EGF LAG seven-pass G-type receptor 3),4,-0.226,52.5,inactive
BPIFB3 (BPI fold containing family B member 3),1,-0.0135,56.7,inactive
BPIFB3 (BPI fold containing family B member 3),2,-0.576,84.5,inactive
BPIFB3 (BPI fold containing family B member 3),3,-0.138,73.7,inactive
BPIFB3 (BPI fold containing family B member 3),4,-0.348,133,inactive
AIRE (autoimmune regulator),1,-0.0819,41.3,inactive
AIRE (autoimmune regulator),2,-0.172,71.6,inactive
AIRE (autoimmune regulator),3,-0.00739,71.1,inactive
AIRE (autoimmune regulator),4,0.0956,95,inactive
SNAP29 (synaptosome associated protein 29),1,0.599,46.9,inactive
SNAP29 (synaptosome associated protein 29),2,-0.283,93.5,inactive
SNAP29 (synaptosome associated protein 29),3,0.0416,87,inactive
SNAP29 (synaptosome associated protein 29),4,-0.722,55.1,inactive
GABRR2 (gamma-aminobutyric acid type A receptor subunit rho2),1,-0.15,120,inactive
GABRR2 (gamma-aminobutyric acid type A receptor subunit rho2),2,-0.186,103,inactive
GABRR2 (gamma-aminobutyric acid type A receptor subunit rho2),3,0.567,26,inactive
GABRR2 (gamma-aminobutyric acid type A receptor subunit rho2),4,-0.13,87.9,inactive
ADGRL2 (adhesion G protein-coupled receptor L2),1,-0.0203,98.6,inactive
ADGRL2 (adhesion G protein-coupled receptor L2),2,-0.179,111,inactive
ADGRL2 (adhesion G protein-coupled receptor L2),3,-0.202,99.4,inactive
ADGRL2 (adhesion G protein-coupled receptor L2),4,-0.0164,60.8,inactive
NLE1 (notchless homolog 1),1,-0.22,94.9,inactive
NLE1 (notchless homolog 1),2,-0.119,93,inactive
NLE1 (notchless homolog 1),3,-0.378,82.6,inactive
NLE1 (notchless homolog 1),4,-0.199,90.6,inactive
TNFRSF13B (TNF receptor superfamily member 13B),1,-0.411,74.9,inactive
TNFRSF13B (TNF receptor superfamily member 13B),2,-0.11,86.5,inactive
TNFRSF13B (TNF receptor superfamily member 13B),3,-0.232,65.5,inactive
TNFRSF13B (TNF receptor superfamily member 13B),4,-0.159,90.4,inactive
ADCY5 (adenylate cyclase 5),1,-0.521,48.3,inactive
ADCY5 (adenylate cyclase 5),2,0.089,93.4,inactive
ADCY5 (adenylate cyclase 5),3,0.101,74.2,inactive
ADCY5 (adenylate cyclase 5),4,-0.237,97.8,inactive
UROD (uroporphyrinogen decarboxylase),1,-0.0068,86.3,inactive
UROD (uroporphyrinogen decarboxylase),2,-0.0892,62.8,inactive
UROD (uroporphyrinogen decarboxylase),3,0.0442,70.9,inactive
STX8 (syntaxin 8),1,-0.0101,107,inactive
STX8 (syntaxin 8),2,-0.834,57.8,inactive
STX8 (syntaxin 8),3,-0.331,93.3,inactive
STX8 (syntaxin 8),4,-0.426,108,inactive
TPH2 (tryptophan hydroxylase 2),1,-0.244,54.1,inactive
TPH2 (tryptophan hydroxylase 2),2,-0.133,34.9,inactive
TPH2 (tryptophan hydroxylase 2),3,-0.454,69.6,inactive
TPH2 (tryptophan hydroxylase 2),4,0.0525,91.7,inactive
CDH20 (cadherin 20),1,-0.186,39.1,inactive
CDH20 (cadherin 20),2,-0.462,85.3,inactive
CDH20 (cadherin 20),3,-0.176,84,inactive
NOTCH3 (notch receptor 3),1,0.0116,72.7,inactive
NOTCH3 (notch receptor 3),2,-0.652,56.9,inactive
NOTCH3 (notch receptor 3),3,-0.046,82.7,inactive
NOTCH3 (notch receptor 3),4,-0.595,97.5,inactive
RGS16 (regulator of G protein signaling 16),1,-0.168,68.7,inactive
RGS16 (regulator of G protein signaling 16),2,0.0394,62.7,inactive
RGS16 (regulator of G protein signaling 16),3,0.0196,116,inactive
RGS16 (regulator of G protein signaling 16),4,-0.0932,61.5,inactive
GRPR (gastrin releasing peptide receptor),1,-0.22,69.8,inactive
GRPR (gastrin releasing peptide receptor),2,-0.591,110,inactive
GRPR (gastrin releasing peptide receptor),3,-0.682,91.2,inactive
GRPR (gastrin releasing peptide receptor),4,-0.244,117,inactive
FBXL20 (F-box and leucine rich repeat protein 20),1,-0.164,102,inactive
FBXL20 (F-box and leucine rich repeat protein 20),2,0.096,36.6,inactive
FBXL20 (F-box and leucine rich repeat protein 20),3,1.42,34.6,inactive
FBXL20 (F-box and leucine rich repeat protein 20),4,-0.337,72.3,inactive
HBEGF (heparin binding EGF like growth factor),1,0.557,41.9,inactive
HBEGF (heparin binding EGF like growth factor),2,-0.0669,99.5,inactive
HBEGF (heparin binding EGF like growth factor),3,-0.386,102,inactive
CBR4 (carbonyl reductase 4),1,-0.21,126,inactive
CBR4 (carbonyl reductase 4),2,-0.114,82.7,inactive
CBR4 (carbonyl reductase 4),3,0.191,92.9,inactive
CBR4 (carbonyl reductase 4),4,0.397,42.9,inactive

A stretch from the list above, as a working copy:
gene,siRNA no.,log2 vehicle/camptothecin viability,viability with camptothecin (% of control),Outcome
AIRE (autoimmune regulator),3,-0.00739,71.1,inactive
AIRE (autoimmune regulator),4,0.0956,95,inactive
SNAP29 (synaptosome associated protein 29),1,0.599,46.9,inactive
SNAP29 (synaptosome associated protein 29),2,-0.283,93.5,inactive
SNAP29 (synaptosome associated protein 29),3,0.0416,87,inactive
